Measurements taken from publication PMC6842489.
No constants are given. Whether binding was seen depends on the method and setting. Binding seen in cells or lysates may run through a third protein. Some results given as binding are weak or reduced against the parent protein; the word gives no strength.

By UniProt entry, the sequences of proteins in these tests, tags left out.
UniProt Q9Y572: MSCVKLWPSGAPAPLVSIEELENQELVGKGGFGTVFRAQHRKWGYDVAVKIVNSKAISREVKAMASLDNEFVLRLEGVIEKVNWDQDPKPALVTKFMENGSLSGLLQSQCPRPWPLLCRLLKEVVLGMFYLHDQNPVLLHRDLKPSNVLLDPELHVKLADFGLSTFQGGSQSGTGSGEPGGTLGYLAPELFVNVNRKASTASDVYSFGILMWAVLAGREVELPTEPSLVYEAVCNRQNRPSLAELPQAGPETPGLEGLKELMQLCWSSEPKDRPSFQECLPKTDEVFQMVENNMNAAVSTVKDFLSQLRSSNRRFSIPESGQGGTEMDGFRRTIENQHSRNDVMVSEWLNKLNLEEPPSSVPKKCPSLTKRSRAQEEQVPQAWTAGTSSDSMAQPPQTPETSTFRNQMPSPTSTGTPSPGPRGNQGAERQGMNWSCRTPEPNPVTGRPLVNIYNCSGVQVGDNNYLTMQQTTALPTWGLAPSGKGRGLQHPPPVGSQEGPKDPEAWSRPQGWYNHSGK
UniProt Q13546: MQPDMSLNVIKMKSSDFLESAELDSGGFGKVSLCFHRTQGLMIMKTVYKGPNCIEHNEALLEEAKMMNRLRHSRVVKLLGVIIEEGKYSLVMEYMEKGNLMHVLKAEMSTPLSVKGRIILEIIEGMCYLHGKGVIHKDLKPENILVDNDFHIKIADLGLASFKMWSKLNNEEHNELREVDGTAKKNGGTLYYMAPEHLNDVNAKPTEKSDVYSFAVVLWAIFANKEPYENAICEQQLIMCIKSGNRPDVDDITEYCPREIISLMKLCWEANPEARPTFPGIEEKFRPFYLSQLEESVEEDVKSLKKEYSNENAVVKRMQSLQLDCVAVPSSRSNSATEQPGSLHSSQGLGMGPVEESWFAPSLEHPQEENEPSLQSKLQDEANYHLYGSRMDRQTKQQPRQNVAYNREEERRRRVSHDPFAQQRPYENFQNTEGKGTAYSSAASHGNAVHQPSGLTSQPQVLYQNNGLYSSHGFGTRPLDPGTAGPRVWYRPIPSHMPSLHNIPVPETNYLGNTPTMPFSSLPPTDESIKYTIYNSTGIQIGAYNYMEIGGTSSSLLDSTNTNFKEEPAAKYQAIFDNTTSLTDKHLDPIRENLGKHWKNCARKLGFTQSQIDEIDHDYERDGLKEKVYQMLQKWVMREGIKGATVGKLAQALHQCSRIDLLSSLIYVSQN

What was measured:
[1] = molecular target: receptor interacting protein 3 (human (endogenous in HT29)) (UniProt Q9Y572); test: co-IP; as a1, but HT29 cells pre-treated with Nec-1 (50 μM) for 12 h before 10 Gy X-ray
[2] = molecular target: receptor interacting protein 3 (human (endogenous in HT29)) (UniProt Q9Y572); test: co-IP; lysate of HT29 cells exposed to 10 Gy X-ray; anti-RIP1 or anti-RIP3 antibodies with protein A/G agarose beads overnight at 4 °C; beads washed at least five times with lysis buffer; western blot

binding [2]: binds
Substance: receptor interacting protein 1 (from UniProt Q13546 1-671)
binding [1]: no binding (condition: cells pre-treated with 50 μM Nec-1)
